Assay results taken from patent publication US8026368B2, “Hydrazide compounds and thrombopoietin receptor activators” (Nissan Chemical Industries, Ltd., priority 2005, dated 2011).

The chains behind the UniProt entries cited, without tags or fusion partners. Residues count along the entry.
UniProt P40238, 26-635 limits assumed: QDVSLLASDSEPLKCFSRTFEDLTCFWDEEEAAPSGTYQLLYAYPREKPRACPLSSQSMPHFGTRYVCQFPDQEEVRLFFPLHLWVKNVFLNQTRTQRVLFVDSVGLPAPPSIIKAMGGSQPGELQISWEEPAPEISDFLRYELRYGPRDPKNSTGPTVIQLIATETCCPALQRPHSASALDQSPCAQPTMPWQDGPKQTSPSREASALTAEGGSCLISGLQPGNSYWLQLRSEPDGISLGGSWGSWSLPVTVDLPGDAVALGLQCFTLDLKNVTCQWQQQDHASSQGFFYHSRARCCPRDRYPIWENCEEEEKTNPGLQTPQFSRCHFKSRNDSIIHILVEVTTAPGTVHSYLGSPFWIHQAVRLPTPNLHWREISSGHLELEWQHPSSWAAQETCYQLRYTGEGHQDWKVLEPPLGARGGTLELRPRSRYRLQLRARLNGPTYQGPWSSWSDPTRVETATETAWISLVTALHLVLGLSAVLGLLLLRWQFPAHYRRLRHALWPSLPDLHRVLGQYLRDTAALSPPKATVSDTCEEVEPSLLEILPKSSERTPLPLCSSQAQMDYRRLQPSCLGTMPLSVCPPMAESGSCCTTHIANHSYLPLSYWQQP

Target: human thrombopoietin receptor (c-mpl) (Homo sapiens, UniProt P40238)
Assay: Stimulation of proliferation of thrombopoietin-dependent cell line UT7/EPO-mpl (WST-8)
Settings: human leukemic cell line UT-7/EPO-mpl, 4 days incubation, WST-8, relative to 10 ng/mL TPO
Procedure: The responses of thrombopoietin receptor to the compounds of the present invention prepared in the Synthetic Examples were assayed using a human leukemic cell line, UT7/EPO-mpl.
UT7/EPO-mpl is a stable transformed cell line obtained by introducing into human leukemic cell line UT7/EPO a vector that induces expression of human thrombopoietin receptor (c-mpl) under control of cytomegalovirus immediate-early promoter by the method of Takatoku et al. (J. Biol. Chem., 272:7259-7263 (1997)). […] These two cell lines were subcultured in IMDM (GIBCO) containing 10% fetal bovine serum (Thermo Electron or BioWest) using a CO2 incubator (5% CO2, 37° C.).
The subcultured cells described above were washed twice with PBS and suspended in IMDM containing 10% fetal bovine serum at a cell density of 6×10^4 cells/ml. The cell suspension was transferred to a 96-well tissue culture plate (CORNING) in 100-μl aliquots. Then either thrombopoietin (Pepro Tech EC) or the compounds of the Synthetic Examples dissolved in dimethyl sulfoxide were diluted 83-fold with IMDM containing 10% fetal bovine serum and added to the aforementioned cell suspension in 20-μl aliquots. The cell suspension was incubated in a CO2 incubator (5% CO2, 37° C.) for 4 days. […] The formazan pigment generated was detected by measuring the absorbance at 450 nm with a 96-well microplate reader (Nihon Molecular Devices, Spectramax 190). […]

EC50 (concentration that yields a growth rate corresponding to 50% of the growth observed in the presence of 10 ng/mL TPO): 3.2 ng/mL
SMILES: CC1=NN(c2ccc(C)c(C)c2)C(=O)/C1=C(/C)NNC(=O)c1ccc(C(=O)N2CCC(N3CCCC3)CC2)s1

The structures given here were assigned with low confidence; some may be wrong.
